Measurements reported in PubChem BioAssay AID504764 (Drosophila RNAi Screening Center, 2011).
Purpose: 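Genes whose knock-down alters Notch-dependent transcription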 (primary screen). System: Drosophila Kc167 cells. Reagent: long dsRNA against Drosophila genes. Duration: about 5 days (4 days dsRNA, then 24 h after transfection). Challenge: transfection of constitutively active membrane-tethered Notch lacking the extracellular domain, read 24 h later. Detection: 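Light from a Notch-responsive E(spl)m3 luciferase reporter under active Notch, with control-promoter and no-Notch reporter wells to normalise; raw counts from paired wells a and b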. Direction: induced reporter light, run 1, well a and induced reporter light, run 1, well b: higher = more light from the Notch target reporter with active Notch; control promoter light, run 1, well a and control promoter light, run 1, well b: higher = more light from the viral control promoter (cell number, transfection, viability); uninduced reporter light, run 1, well a: higher = more light from the Notch target reporter without active Notch. Hit rule: 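Wells with low control signal or poorly matching duplicates excluded; duplicates averaged; per source plate, z beyond ±2 for induced/control log2 ratio or beyond ±1.8 for induced/uninduced marks a hit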. Meaning of the calls: active = modifier hit (raised or lowered Notch signal); inactive = not a hit.
The deposit covers about 22,000 reagents; below is a random part of those with a known target gene and a result. In the full data, 403 (1.9%) got an active call. 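Unnormalised raw counts per well; ratio z-scores behind the hit calls and whether each hit raises or lowers signal are not deposited.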 Entries without a mark were called inactive. Names joined by + are all predicted targets of the reagent. No sequences are given here. The record does not give: the amount of reagent.

Polr2M (RNA polymerase II subunit M) [DRSC15513] | induced reporter light, run 1, well a = 2.65e5; induced reporter light, run 1, well b = 1.86e5; control promoter light, run 1, well a = 2.41e5; control promoter light, run 1, well b = 2.36e5; uninduced reporter light, run 1, well a = 15600
CG15576 [DRSC18064] | induced reporter light, run 1, well a = 1.52e5; induced reporter light, run 1, well b = 1.50e5; control promoter light, run 1, well a = 2.54e5; control promoter light, run 1, well b = 2.73e5; uninduced reporter light, run 1, well a = 12070
CG34047 (retired record) [DRSC07857] | induced reporter light, run 1, well a = 2.10e5; induced reporter light, run 1, well b = 1.83e5; control promoter light, run 1, well a = 2.75e5; control promoter light, run 1, well b = 2.38e5; uninduced reporter light, run 1, well a = 18365
CG14180 (retired record) [DRSC10179] | induced reporter light, run 1, well a = 58070; induced reporter light, run 1, well b = 43535; control promoter light, run 1, well a = 59565; control promoter light, run 1, well b = 71345; uninduced reporter light, run 1, well a = 4135
dpr19 (defective proboscis extension response 19) [DRSC02237] | induced reporter light, run 1, well a = 1.24e5; induced reporter light, run 1, well b = 1.48e5; control promoter light, run 1, well a = 91825; control promoter light, run 1, well b = 1.04e5; uninduced reporter light, run 1, well a = 19670
CAH6 (Carbonic anhydrase 6) [DRSC15505] | induced reporter light, run 1, well a = 1.22e5; induced reporter light, run 1, well b = 1.18e5; control promoter light, run 1, well a = 1.82e5; control promoter light, run 1, well b = 1.90e5; uninduced reporter light, run 1, well a = 11405
Wdr82 (WD repeat domain 82) [DRSC02595] | induced reporter light, run 1, well a = 1.04e5; induced reporter light, run 1, well b = 1.30e5; control promoter light, run 1, well a = 84930; control promoter light, run 1, well b = 1.14e5; uninduced reporter light, run 1, well a = 7478

2 consecutive reagents from above:
CAH6 (Carbonic anhydrase 6) [DRSC15505] | induced reporter light, run 1, well a = 1.22e5; induced reporter light, run 1, well b = 1.18e5; control promoter light, run 1, well a = 1.82e5; control promoter light, run 1, well b = 1.90e5; uninduced reporter light, run 1, well a = 11405
Wdr82 (WD repeat domain 82) [DRSC02595] | induced reporter light, run 1, well a = 1.04e5; induced reporter light, run 1, well b = 1.30e5; control promoter light, run 1, well a = 84930; control promoter light, run 1, well b = 1.14e5; uninduced reporter light, run 1, well a = 7478

Next records follow.
ND-75 (NADH dehydrogenase (ubiquinone) 75 kDa subunit) [DRSC18686] | induced reporter light, run 1, well a = 1.42e5; induced reporter light, run 1, well b = 1.30e5; control promoter light, run 1, well a = 2.60e5; control promoter light, run 1, well b = 2.12e5; uninduced reporter light, run 1, well a = 8950
CG5131 [DRSC02817] | induced reporter light, run 1, well a = 1.02e5; induced reporter light, run 1, well b = 1.57e5; control promoter light, run 1, well a = 1.43e5; control promoter light, run 1, well b = 1.36e5; uninduced reporter light, run 1, well a = 10785
PGRP-LD + Pmi [DRSC10512] | induced reporter light, run 1, well a = 1.10e5; induced reporter light, run 1, well b = 1.44e5; control promoter light, run 1, well a = 1.03e5; control promoter light, run 1, well b = 76485; uninduced reporter light, run 1, well a = 16335
PGRP-LD + Pmi [DRSC10513] | induced reporter light, run 1, well a = 1.54e5; induced reporter light, run 1, well b = 1.63e5; control promoter light, run 1, well a = 1.60e5; control promoter light, run 1, well b = 1.13e5; uninduced reporter light, run 1, well a = 13030
spn-B (spindle B) [DRSC17063] | induced reporter light, run 1, well a = 3.04e5; induced reporter light, run 1, well b = 2.68e5; control promoter light, run 1, well a = 2.43e5; control promoter light, run 1, well b = 2.53e5; uninduced reporter light, run 1, well a = 20970
didum (dilute class unconventional myosin) [DRSC07603] | induced reporter light, run 1, well a = 2.17e5; induced reporter light, run 1, well b = 2.19e5; control promoter light, run 1, well a = 2.66e5; control promoter light, run 1, well b = 2.43e5; uninduced reporter light, run 1, well a = 17670
PCID2 (PCI domain-containing protein 2) [DRSC10822] | induced reporter light, run 1, well a = 1.32e5; induced reporter light, run 1, well b = 1.63e5; control promoter light, run 1, well a = 1.34e5; control promoter light, run 1, well b = 77605; uninduced reporter light, run 1, well a = 15355
Mkp + CG34140 [DRSC08585] | induced reporter light, run 1, well a = 55475 (active); induced reporter light, run 1, well b = 67830; control promoter light, run 1, well a = 64495; control promoter light, run 1, well b = 82790; uninduced reporter light, run 1, well a = 4635
LysX (Lysozyme X) [DRSC08678] | induced reporter light, run 1, well a = 72235 (active); induced reporter light, run 1, well b = 1.34e5; control promoter light, run 1, well a = 1.99e5; control promoter light, run 1, well b = 2.47e5; uninduced reporter light, run 1, well a = 4810
Elal (Elastin-like) [DRSC16662] | induced reporter light, run 1, well a = 11550; induced reporter light, run 1, well b = 14800; control promoter light, run 1, well a = 12455; control promoter light, run 1, well b = 16310; uninduced reporter light, run 1, well a = 1200
CG13840 [DRSC14690] | induced reporter light, run 1, well a = 60260; induced reporter light, run 1, well b = 65245; control promoter light, run 1, well a = 51710; control promoter light, run 1, well b = 57245; uninduced reporter light, run 1, well a = 8420
